Results deposited as PubChem BioAssay AID504786 (Drosophila RNAi Screening Center, 2011).

Purpose: 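Positive regulators of HIF-driven reporter output in Drosophila cells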 (primary screen)
Cell system: Drosophila S2 cells with a stable HIF luciferase reporter
Reagents: long dsRNA against Drosophila genes, about 0.2 µg dsRNA per well of a 384-well plate
Time to read-out: three days of knock-down, then 20 h of DFO before reading
Challenge: desferrioxamine (DFO) at 100 µM, an iron chelator that mimics hypoxia, for 20 h
Measured: 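Firefly luciferase driven by the mouse ldh-a hypoxia-response element, measured after 20 h of 100 µM DFO; z-scores per plate, higher means more signal lost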
Reading the numbers: z-score: higher = stronger loss of HIF reporter signal
The screen tested about 21,000 reagents; below is a random part of those that have a named target and a result. 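Primary screen; positive scores mean lost reporter signal, so the sign may be inverted from the usual convention.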 A plus sign joins genes that one reagent is predicted to hit. Reagent sequences are not shown.

target	dsRNA	z-score, replicate 1	z-score, replicate 2	z-score, replicate 3	z-score, replicate 4
Prosalpha6 (GeneID 34359)	DRSC03401	5.3	6.1		
l(2)37Bb (GeneID 49427)	DRSC02088	-0.3	-0.4	-0.3	0.5
mRpS28 (GeneID 37136)	DRSC06939	0.3	-0.2		
CG12818 (GeneID 41261)	DRSC14556	-0.2	-0.4		
unc-45 (GeneID 44910)	DRSC15449	-0.3	-0.9		
CG7140 (GeneID 40445)	DRSC11799	-0.3	-0.4		
CG12769 (GeneID 35770)	DRSC06167	-0.4	-0.4		
CG34278 (GeneID 5740656)	DRSC13208	0	0.1		
CG8677 (GeneID 35397)	DRSC03107	-0.3	-0.4		
CG9205 (GeneID 38113)	DRSC08642	-0.3	-0.1		
CG15071 (GeneID 37153)	DRSC06504	-0.2	-0.4		
Cyp6a15Psi (GeneID 3772535)	DRSC07377	-0.1	0.1		
SmydA-8 (GeneID 31200)	DRSC18797	-0.4	-0.5		
rasp (GeneID 44098)	DRSC08191	-0.4	-0.3		
CG4000 (GeneID 42451)	DRSC15535	-0.5	0.3	-0.2	-0.6
CG12698 (GeneID 32570)	DRSC19485	-0.3	-0.1		
CG6567 (GeneID 41304)	DRSC16066	-0.3	-0.1		
CG42586 + CG31775	DRSC01413	-0.4	-0.8		
CG10053 (GeneID 40871)	DRSC12502	-0.4	-0.4		
teq (GeneID 39048)	DRSC10298	0	0.2		
teq (GeneID 39048)	DRSC11301	0	2.3		
teq (GeneID 39048)	DRSC11302	-0.3	0.7		
Tsp97E (GeneID 43241)	DRSC16019	-0.3	-0.2		
veli (GeneID 43003)	DRSC16276	-0.4	-0.3		
Hsp70Bc (GeneID 48583)	DRSC16053	-0.1	-0.2		
CG31031 (retired record) (GeneID 318564)	DRSC13964	0.1	-0.3		
Cyp6a9 (GeneID 36663)	DRSC07385	-0.4	0.1		
nSyb (GeneID 38196)	DRSC08727	0	0.1		
Nubpl (GeneID 35452)	DRSC03725	-0.1	-0.2		
tsr (GeneID 37841)	DRSC04718	1.2	2		
Dop2R (GeneID 33007)	DRSC20683	-0.1	0		
Dop2R (GeneID 33007)	DRSC20686	-0.1	0.3		
RnpS1 (GeneID 41147)	DRSC15154	1.1	1.3		
Nepl12 (GeneID 41172)	DRSC16411	-0.4	-0.6		
spen (GeneID 44205)	DRSC00839	-0.3	-0.1		
GstE6 (GeneID 37111)	DRSC06676	-0.3	-0.5		
Trf (GeneID 34102)	DRSC03462	-0.3	-0.4		
Tcs3 (GeneID 39811)	DRSC10461	0	-0.4		
Gss1 + Gss2	DRSC20008	-0.4	-0.2		
CG13722 (GeneID 38555)	DRSC08331	-0.4	-0.1		
l(2)k01209 (GeneID 36953)	DRSC06889	0.1	0		
lap (GeneID 40863)	DRSC12628	-0.4	-0.7		
Cad96Ca (GeneID 43026)	DRSC14220	-0.4	-0.6		
Cad96Ca (GeneID 43026)	DRSC16693	-0.2	-0.7		
CG14186 (GeneID 40196)	DRSC10185	-0.2	-0.1		
CG12708 (GeneID 32502)	DRSC19490	-0.3	-0.4		
elB (GeneID 34844)	DRSC01379	-0.2	-0.6		
elB (GeneID 34844)	DRSC03527	0.8	-0.5		
CG33969 + fbl	DRSC11886	-0.2	-0.3		
CG17440 (GeneID 31879)	DRSC18126	-0.3	-0.4		
Usp1 (GeneID 43462)	DRSC14155	-0.3	-0.2		
Srr (GeneID 41117)	DRSC16382	-0.2	-0.5		
CG42633 (GeneID 8674052)	DRSC16061	-0.2	-0.7		
robl22E (GeneID 33412)	DRSC00289	-0.2	-0.7		
uno (GeneID 35778)	DRSC07244	-0.4	-0.4		
GC2 (GeneID 41449)	DRSC14476	-0.1	1		

A portion taken from the entries so far:
target	dsRNA	z-score, replicate 1	z-score, replicate 2	z-score, replicate 3	z-score, replicate 4
Prosalpha6 (GeneID 34359)	DRSC03401	5.3	6.1		
l(2)37Bb (GeneID 49427)	DRSC02088	-0.3	-0.4	-0.3	0.5
mRpS28 (GeneID 37136)	DRSC06939	0.3	-0.2		
CG12818 (GeneID 41261)	DRSC14556	-0.2	-0.4		
unc-45 (GeneID 44910)	DRSC15449	-0.3	-0.9		
CG7140 (GeneID 40445)	DRSC11799	-0.3	-0.4		
CG12769 (GeneID 35770)	DRSC06167	-0.4	-0.4		
CG34278 (GeneID 5740656)	DRSC13208	0	0.1		
